Results from paper PMC5006980.
These are yes or no findings as the source states them, for the method shown. Some entries that bind do so weakly or less than the wild type.

Chains of the proteins cited; added tags and fusions are not shown. Residues count along the entry.
UniProt P14349, residues 1-544: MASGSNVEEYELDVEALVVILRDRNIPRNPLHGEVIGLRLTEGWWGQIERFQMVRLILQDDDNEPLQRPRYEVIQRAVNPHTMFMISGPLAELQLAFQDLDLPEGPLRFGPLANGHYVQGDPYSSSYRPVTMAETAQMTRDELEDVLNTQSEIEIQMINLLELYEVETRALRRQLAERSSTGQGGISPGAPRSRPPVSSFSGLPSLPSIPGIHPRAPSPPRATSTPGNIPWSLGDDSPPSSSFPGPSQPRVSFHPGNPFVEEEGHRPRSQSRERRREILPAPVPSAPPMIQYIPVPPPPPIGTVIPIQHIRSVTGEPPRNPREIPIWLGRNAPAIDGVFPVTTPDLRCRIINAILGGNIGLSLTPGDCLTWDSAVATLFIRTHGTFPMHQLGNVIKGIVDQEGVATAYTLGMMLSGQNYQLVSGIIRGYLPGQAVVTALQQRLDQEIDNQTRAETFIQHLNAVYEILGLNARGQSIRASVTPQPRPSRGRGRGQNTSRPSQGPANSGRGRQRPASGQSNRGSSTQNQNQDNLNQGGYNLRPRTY
UniProt P53350: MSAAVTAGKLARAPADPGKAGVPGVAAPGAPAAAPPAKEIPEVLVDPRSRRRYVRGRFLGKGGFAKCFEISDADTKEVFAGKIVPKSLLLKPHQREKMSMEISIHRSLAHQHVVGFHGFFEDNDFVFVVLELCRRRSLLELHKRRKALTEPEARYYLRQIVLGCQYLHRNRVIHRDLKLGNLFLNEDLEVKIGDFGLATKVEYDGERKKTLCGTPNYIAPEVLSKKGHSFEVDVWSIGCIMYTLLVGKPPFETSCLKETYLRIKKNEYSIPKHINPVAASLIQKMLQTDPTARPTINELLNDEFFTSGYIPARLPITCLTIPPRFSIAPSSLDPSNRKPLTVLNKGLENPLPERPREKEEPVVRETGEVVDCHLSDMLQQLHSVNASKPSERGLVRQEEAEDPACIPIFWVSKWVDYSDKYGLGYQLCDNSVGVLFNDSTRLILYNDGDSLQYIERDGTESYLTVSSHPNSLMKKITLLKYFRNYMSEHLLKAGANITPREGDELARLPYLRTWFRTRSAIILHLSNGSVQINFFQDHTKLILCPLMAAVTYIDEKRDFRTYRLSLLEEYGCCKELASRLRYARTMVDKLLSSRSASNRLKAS

Target: PFV Gag 1–544 fused to the GAL4 DNA binding domain (prototype foamy virus (PFV)) (UniProt P14349)
Assay: two-hybrid; directed Y2H, Matchmaker System, S. cerevisiae AH109; baits fused to GAL4 DB, preys fused to GAL4 AD; growth on quadruple-dropout (-Leu/-Trp/-Ade/-His) agar after two to four days at 30°C

For “full-length human PLK1 fused to the GAL4 activation domain (from UniProt P53350 1-603) (enzyme)”, the binding was “binds”.
